Experimental findings from doi:10.1101/2021.09.30.462231 are described below.

Results are given in words; binding and its absence hold for the method and conditions named. Binding seen in cells or lysates may run through a third protein. Sequences can lack the tags named with a protein.

This assay has as its target T1, GST-Sec23 (S. cerevisiae) (UniProt P15303).
T1 sequence: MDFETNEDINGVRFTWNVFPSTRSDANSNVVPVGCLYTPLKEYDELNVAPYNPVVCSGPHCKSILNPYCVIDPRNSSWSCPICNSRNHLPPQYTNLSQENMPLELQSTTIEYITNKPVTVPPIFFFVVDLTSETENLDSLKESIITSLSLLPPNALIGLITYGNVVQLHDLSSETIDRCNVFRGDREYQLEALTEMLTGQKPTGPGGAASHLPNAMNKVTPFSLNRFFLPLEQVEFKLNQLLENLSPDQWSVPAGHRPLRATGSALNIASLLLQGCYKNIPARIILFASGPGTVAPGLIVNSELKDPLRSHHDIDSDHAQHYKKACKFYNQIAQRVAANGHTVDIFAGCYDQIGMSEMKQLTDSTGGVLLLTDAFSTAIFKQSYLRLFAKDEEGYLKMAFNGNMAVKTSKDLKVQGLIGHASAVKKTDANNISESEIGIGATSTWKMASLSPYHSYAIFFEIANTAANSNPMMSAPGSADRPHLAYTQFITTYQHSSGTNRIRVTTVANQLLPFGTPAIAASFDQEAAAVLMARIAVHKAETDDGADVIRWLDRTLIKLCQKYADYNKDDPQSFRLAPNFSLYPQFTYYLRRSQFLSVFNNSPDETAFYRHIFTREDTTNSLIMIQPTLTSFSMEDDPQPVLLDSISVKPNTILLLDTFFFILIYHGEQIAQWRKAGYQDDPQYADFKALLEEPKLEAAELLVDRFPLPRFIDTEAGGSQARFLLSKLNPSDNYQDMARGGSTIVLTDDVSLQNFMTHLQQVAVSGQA
As to the kind of experiment: pull-down.

On to “Grh1 with deletion of the C-terminal IDR (S. cerevisiae) (domain or fragment)”, for which the binding entry is reported as “no binding”.
